No constants are given. Whether binding was seen depends on the method and setting. Binding seen in cells or lysates may run through a third protein. Some results given as binding are weak or reduced against the parent protein; the word gives no strength.
Legend:
[1] = target: HA-tagged ATG2A-mLIR (FCIL/AAAA) (human) (UniProt Q2TAZ0); assay: co-IP
[2] = target: HA-tagged ATG2A-mYFS (YFS/AAA) (human) (UniProt Q2TAZ0); assay: co-IP
[3] = target: GFP-tagged GABARAP (HEK293T) (UniProt O95166); assay: co-IP
GST-tagged GABARAP = GST-tagged GABARAP (UniProt O95166); assay: pull-down
GST-tagged LC3A = GST-tagged LC3A (UniProt Q9H492); assay: pull-down
GST-tagged LC3C = GST-tagged LC3C (UniProt Q9BXW4); assay: pull-down

By UniProt entry, the sequences of proteins in these tests, tags left out. Where a name states a change or a piece, a line headed by the entry shows the natural chain unless it says otherwise. Chains listed by the source or under a name are the forms on record and can include a tag or linker. Residues count along the entry.
UniProt Q2TAZ0: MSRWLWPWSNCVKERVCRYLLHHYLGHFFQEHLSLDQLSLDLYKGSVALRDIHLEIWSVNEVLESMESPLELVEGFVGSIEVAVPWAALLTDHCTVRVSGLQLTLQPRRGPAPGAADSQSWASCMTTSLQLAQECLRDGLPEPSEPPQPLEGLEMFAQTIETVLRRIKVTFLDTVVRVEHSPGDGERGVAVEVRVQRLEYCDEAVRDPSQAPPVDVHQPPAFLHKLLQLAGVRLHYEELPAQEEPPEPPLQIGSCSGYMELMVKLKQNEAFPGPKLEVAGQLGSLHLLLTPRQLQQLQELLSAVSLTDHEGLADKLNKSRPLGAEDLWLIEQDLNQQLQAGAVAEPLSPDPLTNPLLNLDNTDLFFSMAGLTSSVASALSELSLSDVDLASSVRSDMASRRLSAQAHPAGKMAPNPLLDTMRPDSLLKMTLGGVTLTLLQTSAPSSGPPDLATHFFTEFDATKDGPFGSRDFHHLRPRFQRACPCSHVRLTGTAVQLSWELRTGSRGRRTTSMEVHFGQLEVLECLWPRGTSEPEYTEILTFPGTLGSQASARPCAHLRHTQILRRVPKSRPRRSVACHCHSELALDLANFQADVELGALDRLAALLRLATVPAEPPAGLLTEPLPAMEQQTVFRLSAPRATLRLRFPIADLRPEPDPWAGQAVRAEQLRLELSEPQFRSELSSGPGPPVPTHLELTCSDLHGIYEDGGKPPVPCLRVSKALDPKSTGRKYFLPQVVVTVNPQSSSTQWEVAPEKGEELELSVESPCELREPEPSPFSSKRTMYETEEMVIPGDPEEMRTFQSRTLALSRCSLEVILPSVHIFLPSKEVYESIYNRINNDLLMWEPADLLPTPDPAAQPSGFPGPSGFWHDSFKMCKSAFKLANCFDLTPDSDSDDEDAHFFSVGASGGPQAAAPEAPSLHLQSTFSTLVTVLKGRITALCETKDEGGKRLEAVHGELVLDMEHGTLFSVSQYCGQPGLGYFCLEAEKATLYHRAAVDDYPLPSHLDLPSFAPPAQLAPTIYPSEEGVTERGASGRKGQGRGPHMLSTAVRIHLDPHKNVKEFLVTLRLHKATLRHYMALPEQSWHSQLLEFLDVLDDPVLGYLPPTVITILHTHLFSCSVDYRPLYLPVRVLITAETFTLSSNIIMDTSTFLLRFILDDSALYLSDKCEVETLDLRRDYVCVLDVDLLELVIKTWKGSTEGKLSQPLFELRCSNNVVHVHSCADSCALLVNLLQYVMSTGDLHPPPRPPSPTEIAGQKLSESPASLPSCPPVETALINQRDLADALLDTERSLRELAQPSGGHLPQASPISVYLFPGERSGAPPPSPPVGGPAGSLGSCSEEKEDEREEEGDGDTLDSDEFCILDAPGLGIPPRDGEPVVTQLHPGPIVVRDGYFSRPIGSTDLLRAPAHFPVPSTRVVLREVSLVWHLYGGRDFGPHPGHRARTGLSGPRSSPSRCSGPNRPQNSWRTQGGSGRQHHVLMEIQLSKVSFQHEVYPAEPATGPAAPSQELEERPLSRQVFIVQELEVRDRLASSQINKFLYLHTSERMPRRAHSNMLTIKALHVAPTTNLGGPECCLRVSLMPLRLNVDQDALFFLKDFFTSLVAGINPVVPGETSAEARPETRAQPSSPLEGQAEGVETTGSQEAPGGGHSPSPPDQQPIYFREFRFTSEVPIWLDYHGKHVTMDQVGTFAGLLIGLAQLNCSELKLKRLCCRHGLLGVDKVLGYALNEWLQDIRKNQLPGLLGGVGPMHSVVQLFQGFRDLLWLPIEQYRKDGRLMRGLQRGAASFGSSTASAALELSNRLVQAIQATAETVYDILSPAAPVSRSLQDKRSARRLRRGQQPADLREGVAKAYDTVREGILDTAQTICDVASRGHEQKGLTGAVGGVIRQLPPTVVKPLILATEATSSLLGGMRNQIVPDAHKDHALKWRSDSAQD
Myc-tagged ATG2A mutant LIR (FCIL/AAAA) (Q2TAZ0-1, form named): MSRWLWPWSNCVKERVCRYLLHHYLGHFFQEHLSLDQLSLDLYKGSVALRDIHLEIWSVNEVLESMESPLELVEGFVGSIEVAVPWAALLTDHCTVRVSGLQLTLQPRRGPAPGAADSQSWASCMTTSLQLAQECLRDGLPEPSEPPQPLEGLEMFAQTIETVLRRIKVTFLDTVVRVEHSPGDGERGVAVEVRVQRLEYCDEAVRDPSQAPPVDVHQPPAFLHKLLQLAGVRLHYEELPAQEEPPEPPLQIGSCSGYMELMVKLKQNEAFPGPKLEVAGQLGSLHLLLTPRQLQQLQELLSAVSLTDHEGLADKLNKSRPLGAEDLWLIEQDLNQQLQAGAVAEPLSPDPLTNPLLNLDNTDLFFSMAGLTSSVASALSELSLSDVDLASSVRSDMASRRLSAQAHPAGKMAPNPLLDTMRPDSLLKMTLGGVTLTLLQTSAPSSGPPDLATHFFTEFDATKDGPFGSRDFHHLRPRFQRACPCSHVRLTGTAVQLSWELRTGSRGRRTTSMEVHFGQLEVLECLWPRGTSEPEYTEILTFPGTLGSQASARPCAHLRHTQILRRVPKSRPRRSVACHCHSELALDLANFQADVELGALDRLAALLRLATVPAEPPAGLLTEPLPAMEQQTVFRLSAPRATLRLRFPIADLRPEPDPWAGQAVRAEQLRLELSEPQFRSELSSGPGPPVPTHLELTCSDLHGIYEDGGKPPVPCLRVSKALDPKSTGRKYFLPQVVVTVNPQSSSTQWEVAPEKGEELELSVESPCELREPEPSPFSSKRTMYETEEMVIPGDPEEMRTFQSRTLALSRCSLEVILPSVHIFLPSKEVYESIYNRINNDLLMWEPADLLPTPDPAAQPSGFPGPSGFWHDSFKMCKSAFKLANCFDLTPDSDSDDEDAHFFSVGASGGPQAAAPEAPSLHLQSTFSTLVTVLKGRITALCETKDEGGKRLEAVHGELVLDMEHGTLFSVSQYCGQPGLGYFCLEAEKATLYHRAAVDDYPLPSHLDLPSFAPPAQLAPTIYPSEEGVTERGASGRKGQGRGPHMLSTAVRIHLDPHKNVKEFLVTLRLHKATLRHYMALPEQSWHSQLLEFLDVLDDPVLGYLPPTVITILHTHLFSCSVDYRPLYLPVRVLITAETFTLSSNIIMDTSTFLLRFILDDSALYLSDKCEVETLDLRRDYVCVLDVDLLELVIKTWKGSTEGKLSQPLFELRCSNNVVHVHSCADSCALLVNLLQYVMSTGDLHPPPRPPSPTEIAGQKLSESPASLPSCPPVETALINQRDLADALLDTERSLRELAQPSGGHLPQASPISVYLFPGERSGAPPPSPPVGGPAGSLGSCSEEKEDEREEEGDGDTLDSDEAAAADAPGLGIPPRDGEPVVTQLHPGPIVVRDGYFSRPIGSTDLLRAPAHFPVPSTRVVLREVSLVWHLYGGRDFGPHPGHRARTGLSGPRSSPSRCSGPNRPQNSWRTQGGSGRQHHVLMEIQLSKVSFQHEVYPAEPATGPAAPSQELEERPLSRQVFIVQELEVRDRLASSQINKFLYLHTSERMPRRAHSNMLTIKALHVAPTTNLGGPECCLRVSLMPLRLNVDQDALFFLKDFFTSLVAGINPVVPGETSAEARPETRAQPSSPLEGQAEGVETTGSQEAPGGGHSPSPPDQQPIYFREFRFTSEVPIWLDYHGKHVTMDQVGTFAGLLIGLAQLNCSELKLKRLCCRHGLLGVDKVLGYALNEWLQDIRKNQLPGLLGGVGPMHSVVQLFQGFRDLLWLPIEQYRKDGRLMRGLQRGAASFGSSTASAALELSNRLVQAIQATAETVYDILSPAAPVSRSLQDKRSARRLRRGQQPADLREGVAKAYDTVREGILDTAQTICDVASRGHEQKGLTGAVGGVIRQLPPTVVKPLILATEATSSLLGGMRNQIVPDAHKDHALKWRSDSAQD
HA-tagged ATG2A-mYFS (YFS/AAA) (Q2TAZ0-1, form named): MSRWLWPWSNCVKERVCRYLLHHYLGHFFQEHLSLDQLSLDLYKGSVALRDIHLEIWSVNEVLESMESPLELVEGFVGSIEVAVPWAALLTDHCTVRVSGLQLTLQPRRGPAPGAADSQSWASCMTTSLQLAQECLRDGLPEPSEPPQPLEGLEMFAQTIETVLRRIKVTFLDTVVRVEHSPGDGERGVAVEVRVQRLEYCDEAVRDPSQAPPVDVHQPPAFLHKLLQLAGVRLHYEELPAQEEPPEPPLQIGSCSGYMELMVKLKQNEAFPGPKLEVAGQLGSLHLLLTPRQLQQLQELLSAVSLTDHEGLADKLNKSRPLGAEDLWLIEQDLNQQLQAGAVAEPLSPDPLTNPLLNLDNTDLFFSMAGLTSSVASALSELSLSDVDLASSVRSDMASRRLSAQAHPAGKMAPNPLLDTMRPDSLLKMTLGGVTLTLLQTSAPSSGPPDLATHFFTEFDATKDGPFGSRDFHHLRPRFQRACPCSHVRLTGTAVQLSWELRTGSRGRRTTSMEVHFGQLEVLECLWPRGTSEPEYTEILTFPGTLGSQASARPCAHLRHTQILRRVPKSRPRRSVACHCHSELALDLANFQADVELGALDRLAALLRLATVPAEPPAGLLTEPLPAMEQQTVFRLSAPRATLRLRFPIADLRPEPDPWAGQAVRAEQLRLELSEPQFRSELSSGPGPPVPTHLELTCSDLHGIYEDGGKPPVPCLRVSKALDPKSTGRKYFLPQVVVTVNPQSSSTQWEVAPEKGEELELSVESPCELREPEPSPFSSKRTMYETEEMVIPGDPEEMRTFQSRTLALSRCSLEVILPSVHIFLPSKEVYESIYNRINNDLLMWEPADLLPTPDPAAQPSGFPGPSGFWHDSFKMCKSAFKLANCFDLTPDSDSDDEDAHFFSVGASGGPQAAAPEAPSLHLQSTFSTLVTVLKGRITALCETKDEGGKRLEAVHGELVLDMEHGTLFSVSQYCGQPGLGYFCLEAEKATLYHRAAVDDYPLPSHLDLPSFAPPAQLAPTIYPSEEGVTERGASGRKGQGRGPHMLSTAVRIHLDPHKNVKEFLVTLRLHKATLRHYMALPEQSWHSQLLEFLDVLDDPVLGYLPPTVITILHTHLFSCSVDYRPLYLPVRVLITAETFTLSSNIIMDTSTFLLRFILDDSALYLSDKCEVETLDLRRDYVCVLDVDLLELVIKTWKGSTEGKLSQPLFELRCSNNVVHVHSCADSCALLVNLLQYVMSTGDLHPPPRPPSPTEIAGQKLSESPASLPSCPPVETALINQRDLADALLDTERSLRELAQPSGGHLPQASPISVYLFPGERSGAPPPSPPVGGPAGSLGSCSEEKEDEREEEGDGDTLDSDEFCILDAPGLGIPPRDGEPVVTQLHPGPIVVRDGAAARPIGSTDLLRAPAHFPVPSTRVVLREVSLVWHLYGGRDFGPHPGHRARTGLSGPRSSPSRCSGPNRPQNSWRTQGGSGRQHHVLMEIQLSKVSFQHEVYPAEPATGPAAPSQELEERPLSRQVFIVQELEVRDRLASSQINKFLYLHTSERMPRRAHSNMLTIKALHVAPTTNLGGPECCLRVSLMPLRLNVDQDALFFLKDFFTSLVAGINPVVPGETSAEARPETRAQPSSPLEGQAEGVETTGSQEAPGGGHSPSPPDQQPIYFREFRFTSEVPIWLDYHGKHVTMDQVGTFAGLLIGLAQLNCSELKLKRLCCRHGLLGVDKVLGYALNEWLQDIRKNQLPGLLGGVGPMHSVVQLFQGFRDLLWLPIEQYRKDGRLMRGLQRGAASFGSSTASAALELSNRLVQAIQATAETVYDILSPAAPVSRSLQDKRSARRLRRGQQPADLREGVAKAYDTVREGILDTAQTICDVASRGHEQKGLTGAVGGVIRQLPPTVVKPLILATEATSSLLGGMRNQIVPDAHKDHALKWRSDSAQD
UniProt O95166: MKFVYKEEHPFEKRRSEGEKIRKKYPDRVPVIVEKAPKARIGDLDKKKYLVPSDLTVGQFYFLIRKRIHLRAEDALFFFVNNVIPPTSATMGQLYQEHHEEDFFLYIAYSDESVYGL
UniProt Q9BXW4, residues 1-126: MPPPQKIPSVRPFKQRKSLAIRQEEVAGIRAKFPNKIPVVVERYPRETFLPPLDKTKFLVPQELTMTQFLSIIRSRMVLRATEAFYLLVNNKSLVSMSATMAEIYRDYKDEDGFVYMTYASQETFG

Substance	binding [1]	binding [2]	binding [3]	binding (GST-tagged GABARAP)	binding (GST-tagged LC3A)	binding (GST-tagged LC3C)
GFP-tagged GABARAP (U2OS ATG2A/B DKO cells) (from UniProt O95166 1-117)	no binding	binds	–	–	–	–
Myc-ATG2A-mLIR#2 (FSTL/AAAA) (from UniProt Q2TAZ0-1 1-1938)	–	–	binds	–	–	–
Myc-tagged ATG2A mutant LIR (FCIL/AAAA) (from UniProt Q2TAZ0-1 1-1938)	–	–	no binding	no binding	no binding	no binding
Myc-tagged ATG2A wild type (from UniProt Q2TAZ0-1 1-1938)	–	–	–	–	binds	–
Myc-tagged ATG2B mutant LIR (FCIL/AAAA) (from UniProt Q96BY7 1-2078)	–	–	no binding	no binding	no binding	no binding
Myc-tagged ATG2B wild type (from UniProt Q96BY7 1-2078)	–	–	binds	binds	binds	–
